The experiment addresses T1, C-terminal non-photoactive region of rice PHYB (rice (Oryza sativa)) (UniProt Q10MG9).
T1 sequence: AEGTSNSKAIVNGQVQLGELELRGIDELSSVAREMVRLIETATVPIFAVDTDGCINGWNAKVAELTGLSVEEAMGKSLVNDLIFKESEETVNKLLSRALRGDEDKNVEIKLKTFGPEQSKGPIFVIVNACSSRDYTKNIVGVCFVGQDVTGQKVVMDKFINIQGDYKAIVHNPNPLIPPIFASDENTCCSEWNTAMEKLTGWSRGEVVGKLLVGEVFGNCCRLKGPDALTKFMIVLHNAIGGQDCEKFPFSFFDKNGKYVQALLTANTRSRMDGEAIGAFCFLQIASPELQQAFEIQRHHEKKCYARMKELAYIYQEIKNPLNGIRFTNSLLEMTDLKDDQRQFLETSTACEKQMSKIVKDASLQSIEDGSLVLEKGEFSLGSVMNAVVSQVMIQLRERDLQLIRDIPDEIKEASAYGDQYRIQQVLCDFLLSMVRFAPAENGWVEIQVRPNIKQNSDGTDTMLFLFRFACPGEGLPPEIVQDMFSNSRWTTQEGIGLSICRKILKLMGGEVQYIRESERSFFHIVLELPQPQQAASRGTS
Description: two-hybrid; GAL4 system in yeast strain AH109; bait: C-terminal region of PHYB in pGBKT7; prey: OsPIL16 in pGADT7; growth on SD -Leu -Trp -His with 20 mM 3-AT; three independent clones for each sample.

No constants are given. Whether binding was seen depends on the method and setting. Binding calls can cover weak binding; strength is not graded here.

“OsPIL16 (rice phytochrome-interacting factor-like protein 16)”: the binding entry was “binds”.
